Assay results: patent US20030096382A1
Results are given in words; binding and its absence hold for the method and conditions named. Binding seen in cells or lysates may run through a third protein. Some entries that bind do so weakly or less than the wild type.

Protein sequences, listed by entry. Tags and fused reporters are not part of them.
UniProt P05343: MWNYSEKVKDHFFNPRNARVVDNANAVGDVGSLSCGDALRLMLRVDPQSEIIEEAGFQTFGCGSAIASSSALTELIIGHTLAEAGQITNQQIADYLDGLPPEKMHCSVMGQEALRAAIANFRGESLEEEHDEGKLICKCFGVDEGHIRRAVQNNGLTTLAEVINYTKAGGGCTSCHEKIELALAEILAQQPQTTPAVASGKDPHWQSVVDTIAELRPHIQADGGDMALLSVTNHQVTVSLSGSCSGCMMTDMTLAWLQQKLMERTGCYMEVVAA
UniProt P05344: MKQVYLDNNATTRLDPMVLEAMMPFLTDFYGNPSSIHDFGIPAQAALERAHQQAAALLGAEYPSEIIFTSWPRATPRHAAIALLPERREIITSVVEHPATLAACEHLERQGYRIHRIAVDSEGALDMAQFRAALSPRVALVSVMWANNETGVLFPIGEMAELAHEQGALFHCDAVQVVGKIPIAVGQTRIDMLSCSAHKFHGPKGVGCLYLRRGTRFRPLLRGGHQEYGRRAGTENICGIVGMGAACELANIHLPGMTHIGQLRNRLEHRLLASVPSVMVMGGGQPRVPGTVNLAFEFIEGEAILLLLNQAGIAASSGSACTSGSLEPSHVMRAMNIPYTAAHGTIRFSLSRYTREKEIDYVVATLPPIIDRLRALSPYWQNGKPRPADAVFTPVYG

Target: Klebsiella pneumoniae nifU gene product (Klebsiella pneumoniae) (UniProt P05343)
Assay: co-purification; gel filtration on HiPrep Sephacryl S-200 HR, NIFU/S complex eluted at about 140 kDa; the two also co-eluted on RESOURCE Q anion exchange

Klebsiella pneumoniae nifS gene product (from UniProt P05344 1-397) (enzyme)
binding: binds
